No constants are given. Whether binding was seen depends on the method and setting. Binding seen in cells or lysates may run through a third protein. Here binding means that the protein was enriched with, or labelled near, the bait; the list need not be complete. For some of these results: A no says only that the protein was not detected with the bait.

By UniProt entry, the sequences of proteins in these tests, tags left out. Where a name states a change or a piece, a line headed by the entry shows the natural chain unless it says otherwise.
UniProt Q9C0X6: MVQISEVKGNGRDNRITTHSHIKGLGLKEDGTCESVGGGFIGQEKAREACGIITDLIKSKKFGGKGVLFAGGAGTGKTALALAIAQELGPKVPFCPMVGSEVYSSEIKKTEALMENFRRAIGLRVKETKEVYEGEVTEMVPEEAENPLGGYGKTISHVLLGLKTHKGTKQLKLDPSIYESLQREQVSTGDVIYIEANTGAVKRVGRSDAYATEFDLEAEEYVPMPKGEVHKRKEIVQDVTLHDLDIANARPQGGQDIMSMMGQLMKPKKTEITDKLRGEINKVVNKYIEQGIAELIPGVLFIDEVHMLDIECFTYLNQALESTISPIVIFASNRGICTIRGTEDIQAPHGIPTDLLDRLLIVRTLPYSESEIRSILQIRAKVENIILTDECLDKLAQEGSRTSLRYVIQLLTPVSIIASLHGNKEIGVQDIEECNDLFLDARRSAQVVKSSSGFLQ
UniProt Q10064: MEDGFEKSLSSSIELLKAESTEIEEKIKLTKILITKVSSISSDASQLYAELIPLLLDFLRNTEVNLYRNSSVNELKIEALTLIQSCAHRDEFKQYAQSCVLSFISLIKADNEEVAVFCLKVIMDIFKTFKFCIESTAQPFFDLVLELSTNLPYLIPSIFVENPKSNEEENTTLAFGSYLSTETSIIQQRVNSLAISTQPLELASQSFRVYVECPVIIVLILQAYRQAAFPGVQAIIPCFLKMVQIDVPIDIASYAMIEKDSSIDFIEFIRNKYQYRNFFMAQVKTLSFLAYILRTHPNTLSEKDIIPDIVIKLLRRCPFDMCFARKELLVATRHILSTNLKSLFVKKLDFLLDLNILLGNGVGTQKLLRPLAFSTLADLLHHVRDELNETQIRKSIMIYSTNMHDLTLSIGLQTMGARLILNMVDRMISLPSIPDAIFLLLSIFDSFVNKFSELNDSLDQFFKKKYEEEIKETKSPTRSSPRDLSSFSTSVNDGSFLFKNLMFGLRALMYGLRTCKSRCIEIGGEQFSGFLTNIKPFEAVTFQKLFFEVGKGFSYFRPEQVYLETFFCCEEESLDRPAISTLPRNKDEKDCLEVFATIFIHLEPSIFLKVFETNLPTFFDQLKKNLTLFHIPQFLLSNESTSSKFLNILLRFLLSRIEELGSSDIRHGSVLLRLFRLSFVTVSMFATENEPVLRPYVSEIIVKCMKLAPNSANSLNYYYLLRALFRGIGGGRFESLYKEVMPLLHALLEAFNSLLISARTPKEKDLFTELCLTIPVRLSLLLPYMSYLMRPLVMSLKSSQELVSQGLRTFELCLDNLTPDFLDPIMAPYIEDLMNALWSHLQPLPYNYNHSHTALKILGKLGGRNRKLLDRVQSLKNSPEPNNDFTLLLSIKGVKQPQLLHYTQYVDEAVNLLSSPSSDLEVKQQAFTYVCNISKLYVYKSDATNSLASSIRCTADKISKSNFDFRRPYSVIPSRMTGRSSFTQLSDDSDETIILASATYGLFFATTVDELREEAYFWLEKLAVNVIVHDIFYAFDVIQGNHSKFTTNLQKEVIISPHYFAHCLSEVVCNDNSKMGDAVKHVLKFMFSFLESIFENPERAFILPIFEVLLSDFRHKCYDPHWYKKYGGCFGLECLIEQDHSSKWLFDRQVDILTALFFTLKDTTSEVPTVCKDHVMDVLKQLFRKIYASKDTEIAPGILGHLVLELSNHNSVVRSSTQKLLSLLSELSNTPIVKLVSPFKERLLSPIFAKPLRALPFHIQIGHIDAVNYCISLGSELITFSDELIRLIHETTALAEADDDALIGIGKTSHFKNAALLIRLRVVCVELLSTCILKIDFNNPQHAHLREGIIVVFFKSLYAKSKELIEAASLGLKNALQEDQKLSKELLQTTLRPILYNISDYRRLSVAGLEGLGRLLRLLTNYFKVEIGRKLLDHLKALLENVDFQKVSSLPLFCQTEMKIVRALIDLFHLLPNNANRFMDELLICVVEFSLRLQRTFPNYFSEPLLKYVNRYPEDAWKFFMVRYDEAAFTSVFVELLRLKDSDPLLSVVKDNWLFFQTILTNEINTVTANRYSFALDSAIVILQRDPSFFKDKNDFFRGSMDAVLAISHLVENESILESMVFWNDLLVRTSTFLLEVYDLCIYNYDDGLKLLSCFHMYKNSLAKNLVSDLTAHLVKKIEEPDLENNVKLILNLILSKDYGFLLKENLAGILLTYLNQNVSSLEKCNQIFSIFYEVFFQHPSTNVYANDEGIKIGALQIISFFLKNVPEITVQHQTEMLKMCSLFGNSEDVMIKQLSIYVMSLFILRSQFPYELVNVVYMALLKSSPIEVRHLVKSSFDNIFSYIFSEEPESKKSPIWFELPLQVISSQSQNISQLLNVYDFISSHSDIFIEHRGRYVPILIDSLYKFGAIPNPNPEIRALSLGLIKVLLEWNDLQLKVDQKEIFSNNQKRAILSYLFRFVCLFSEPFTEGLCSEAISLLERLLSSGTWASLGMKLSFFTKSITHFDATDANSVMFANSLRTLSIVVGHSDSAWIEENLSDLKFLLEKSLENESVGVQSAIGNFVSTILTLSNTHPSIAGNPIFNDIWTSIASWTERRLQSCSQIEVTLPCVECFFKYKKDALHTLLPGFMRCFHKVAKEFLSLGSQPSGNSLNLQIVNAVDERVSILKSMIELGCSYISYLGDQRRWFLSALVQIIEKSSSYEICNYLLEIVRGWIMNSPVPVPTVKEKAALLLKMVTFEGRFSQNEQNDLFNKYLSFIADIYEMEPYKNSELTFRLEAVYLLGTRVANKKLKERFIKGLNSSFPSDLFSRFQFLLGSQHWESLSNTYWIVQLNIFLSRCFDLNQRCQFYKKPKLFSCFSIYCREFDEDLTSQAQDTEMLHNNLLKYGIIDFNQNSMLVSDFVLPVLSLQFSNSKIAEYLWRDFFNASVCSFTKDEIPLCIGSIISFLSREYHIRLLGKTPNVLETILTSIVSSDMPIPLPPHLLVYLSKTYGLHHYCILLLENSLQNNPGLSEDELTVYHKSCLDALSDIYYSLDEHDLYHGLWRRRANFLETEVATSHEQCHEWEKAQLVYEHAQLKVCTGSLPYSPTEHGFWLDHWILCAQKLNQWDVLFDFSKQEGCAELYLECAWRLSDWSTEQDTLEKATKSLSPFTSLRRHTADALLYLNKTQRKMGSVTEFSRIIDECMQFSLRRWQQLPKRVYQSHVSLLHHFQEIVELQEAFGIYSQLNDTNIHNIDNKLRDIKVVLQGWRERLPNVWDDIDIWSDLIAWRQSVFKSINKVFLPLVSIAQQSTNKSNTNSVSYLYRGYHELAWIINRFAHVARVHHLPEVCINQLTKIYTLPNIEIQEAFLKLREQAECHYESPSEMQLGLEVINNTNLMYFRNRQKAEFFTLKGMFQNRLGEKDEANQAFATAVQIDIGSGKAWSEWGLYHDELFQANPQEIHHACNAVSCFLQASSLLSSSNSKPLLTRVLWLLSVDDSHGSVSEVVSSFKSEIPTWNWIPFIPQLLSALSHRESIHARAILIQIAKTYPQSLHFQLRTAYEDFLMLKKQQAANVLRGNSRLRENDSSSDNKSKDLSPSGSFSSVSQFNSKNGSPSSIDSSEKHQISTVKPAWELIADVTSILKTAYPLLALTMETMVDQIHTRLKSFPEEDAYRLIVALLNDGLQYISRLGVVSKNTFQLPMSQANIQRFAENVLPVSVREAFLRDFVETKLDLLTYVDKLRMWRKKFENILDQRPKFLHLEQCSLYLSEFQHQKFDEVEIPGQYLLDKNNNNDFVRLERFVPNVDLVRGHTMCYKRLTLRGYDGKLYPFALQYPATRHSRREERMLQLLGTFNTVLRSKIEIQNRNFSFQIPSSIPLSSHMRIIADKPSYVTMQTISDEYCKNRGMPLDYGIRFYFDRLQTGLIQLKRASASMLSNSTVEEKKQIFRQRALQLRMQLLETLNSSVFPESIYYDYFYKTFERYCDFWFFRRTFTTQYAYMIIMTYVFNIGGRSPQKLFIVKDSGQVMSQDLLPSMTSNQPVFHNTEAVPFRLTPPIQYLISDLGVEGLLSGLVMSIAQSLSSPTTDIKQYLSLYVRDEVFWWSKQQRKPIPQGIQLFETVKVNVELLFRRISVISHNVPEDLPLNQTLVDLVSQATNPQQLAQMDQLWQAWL
UniProt P48003: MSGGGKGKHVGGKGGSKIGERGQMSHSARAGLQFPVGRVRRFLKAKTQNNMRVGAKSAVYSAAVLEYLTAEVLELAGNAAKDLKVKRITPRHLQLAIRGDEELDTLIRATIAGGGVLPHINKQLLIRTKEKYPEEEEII
UniProt Q9US07: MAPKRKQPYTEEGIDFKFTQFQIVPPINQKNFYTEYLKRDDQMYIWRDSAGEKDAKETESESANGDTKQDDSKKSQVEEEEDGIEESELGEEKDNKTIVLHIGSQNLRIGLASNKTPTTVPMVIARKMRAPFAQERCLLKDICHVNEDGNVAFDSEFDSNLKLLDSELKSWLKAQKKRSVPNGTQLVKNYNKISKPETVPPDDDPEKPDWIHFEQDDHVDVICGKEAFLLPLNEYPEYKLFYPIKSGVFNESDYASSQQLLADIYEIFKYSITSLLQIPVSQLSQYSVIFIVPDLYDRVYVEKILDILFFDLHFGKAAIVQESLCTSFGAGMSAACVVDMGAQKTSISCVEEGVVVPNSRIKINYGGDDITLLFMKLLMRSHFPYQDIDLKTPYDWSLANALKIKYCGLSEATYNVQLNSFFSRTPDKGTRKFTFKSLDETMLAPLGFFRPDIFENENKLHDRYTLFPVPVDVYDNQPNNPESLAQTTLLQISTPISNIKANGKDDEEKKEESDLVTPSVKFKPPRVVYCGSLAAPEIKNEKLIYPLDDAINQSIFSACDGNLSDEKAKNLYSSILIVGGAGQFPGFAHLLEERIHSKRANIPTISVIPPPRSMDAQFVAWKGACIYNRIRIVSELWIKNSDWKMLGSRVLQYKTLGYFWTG
UniProt Q9UT79: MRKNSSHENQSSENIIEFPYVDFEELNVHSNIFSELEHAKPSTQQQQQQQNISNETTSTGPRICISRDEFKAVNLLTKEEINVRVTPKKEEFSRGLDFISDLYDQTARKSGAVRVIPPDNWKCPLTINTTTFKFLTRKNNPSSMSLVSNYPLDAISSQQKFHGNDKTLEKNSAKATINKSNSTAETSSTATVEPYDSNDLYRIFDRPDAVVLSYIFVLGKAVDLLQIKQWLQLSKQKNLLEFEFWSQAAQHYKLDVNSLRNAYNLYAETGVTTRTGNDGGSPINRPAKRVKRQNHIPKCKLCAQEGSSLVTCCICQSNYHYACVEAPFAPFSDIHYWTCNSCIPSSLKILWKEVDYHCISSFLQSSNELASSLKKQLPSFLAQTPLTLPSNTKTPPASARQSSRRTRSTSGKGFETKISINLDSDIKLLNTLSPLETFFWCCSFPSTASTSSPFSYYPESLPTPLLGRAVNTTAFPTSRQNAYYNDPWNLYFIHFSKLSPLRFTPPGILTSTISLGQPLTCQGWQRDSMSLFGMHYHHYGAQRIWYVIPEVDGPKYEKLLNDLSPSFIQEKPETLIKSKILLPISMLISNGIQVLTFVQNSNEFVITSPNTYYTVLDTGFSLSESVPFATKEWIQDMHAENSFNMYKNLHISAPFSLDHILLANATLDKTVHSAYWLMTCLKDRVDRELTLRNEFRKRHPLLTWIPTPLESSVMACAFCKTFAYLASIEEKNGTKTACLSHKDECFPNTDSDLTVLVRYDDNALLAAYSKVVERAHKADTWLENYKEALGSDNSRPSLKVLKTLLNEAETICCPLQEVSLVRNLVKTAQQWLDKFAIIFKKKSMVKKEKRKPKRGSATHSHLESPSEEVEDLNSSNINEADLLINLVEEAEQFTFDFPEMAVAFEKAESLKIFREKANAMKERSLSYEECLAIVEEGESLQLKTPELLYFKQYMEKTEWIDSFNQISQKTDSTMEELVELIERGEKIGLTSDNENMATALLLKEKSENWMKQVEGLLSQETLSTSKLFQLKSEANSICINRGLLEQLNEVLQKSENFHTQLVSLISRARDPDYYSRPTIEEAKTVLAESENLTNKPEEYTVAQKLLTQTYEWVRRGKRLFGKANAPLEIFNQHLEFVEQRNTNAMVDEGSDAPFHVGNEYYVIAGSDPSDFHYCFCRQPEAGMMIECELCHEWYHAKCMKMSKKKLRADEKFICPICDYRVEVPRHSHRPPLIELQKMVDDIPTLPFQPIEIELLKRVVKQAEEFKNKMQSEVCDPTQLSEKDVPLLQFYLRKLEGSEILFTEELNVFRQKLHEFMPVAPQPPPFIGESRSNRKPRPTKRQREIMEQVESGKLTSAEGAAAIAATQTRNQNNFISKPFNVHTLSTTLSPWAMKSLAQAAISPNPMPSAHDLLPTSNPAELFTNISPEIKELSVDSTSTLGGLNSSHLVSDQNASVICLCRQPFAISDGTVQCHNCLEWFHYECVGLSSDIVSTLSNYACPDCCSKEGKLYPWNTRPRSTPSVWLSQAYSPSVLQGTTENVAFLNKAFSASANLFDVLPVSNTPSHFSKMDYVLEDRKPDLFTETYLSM

Test [1] concerns the target RVB1 (S. pombe) (S. pombe) (UniProt Q9C0X6). Description: affinity purification with mass spectrometry; TAP of baits TAP-tagged at their genes from S. pombe extracts; eluates on 6-18% gels, Coomassie, bands and slices identified by MALDI peptide mapping and LC-MS/MS; common background removed, A-index cut-off 1.75.
The target of another test is T1, Sp_Alp13p (S. pombe) (UniProt O13953).
T1 sequence: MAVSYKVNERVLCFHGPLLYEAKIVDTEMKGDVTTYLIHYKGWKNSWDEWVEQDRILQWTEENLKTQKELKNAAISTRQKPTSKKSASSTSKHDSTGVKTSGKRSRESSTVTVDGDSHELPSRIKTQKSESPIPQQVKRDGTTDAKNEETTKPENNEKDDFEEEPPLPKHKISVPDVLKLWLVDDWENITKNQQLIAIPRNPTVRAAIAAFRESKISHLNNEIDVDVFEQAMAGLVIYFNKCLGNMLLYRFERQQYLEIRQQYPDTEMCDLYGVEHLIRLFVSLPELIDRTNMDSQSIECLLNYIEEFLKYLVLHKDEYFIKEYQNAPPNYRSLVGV
Described as above.

In test [2] the target is T2, Clr6p (S. pombe) (S. pombe) (UniProt O59702).
T2 sequence: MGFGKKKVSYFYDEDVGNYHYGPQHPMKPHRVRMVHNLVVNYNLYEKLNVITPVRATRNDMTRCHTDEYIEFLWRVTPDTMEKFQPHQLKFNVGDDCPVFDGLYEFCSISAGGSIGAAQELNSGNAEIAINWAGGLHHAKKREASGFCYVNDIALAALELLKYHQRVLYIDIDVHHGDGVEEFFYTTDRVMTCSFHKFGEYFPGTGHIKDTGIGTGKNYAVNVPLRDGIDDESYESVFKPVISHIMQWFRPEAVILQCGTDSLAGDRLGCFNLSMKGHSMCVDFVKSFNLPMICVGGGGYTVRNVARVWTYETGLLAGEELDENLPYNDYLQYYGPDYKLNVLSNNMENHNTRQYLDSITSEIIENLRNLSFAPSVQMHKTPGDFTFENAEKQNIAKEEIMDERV
Described as above.

In test [3] the target is T3, YAF9 (S. pombe) (S. pombe) (UniProt Q10319).
T3 sequence: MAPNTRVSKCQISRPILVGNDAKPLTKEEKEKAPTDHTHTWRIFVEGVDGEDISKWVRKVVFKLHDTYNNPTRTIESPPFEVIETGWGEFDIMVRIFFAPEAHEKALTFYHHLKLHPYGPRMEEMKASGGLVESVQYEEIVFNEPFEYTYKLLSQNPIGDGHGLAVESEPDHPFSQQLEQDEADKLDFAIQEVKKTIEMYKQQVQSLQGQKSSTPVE
The test is described as above.

Test [4] concerns the target T4, SWC4 (S. pombe) (S. pombe) (UniProt O14308).
T4 sequence: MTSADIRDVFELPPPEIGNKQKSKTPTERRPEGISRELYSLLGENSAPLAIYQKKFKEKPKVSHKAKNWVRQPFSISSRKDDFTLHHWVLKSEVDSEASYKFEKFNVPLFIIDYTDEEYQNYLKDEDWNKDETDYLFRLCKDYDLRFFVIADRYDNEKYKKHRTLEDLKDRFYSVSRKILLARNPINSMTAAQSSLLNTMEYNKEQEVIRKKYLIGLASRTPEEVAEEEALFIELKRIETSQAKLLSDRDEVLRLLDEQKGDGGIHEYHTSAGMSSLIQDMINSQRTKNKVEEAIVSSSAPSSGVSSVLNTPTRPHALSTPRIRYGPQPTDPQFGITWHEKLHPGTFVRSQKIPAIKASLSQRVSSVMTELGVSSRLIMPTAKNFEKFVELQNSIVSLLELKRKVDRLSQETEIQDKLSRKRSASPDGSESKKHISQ
The test is described as above.

In a further test the target is T5, Sp_Set3p (S. pombe) (UniProt Q10362).
T5 sequence: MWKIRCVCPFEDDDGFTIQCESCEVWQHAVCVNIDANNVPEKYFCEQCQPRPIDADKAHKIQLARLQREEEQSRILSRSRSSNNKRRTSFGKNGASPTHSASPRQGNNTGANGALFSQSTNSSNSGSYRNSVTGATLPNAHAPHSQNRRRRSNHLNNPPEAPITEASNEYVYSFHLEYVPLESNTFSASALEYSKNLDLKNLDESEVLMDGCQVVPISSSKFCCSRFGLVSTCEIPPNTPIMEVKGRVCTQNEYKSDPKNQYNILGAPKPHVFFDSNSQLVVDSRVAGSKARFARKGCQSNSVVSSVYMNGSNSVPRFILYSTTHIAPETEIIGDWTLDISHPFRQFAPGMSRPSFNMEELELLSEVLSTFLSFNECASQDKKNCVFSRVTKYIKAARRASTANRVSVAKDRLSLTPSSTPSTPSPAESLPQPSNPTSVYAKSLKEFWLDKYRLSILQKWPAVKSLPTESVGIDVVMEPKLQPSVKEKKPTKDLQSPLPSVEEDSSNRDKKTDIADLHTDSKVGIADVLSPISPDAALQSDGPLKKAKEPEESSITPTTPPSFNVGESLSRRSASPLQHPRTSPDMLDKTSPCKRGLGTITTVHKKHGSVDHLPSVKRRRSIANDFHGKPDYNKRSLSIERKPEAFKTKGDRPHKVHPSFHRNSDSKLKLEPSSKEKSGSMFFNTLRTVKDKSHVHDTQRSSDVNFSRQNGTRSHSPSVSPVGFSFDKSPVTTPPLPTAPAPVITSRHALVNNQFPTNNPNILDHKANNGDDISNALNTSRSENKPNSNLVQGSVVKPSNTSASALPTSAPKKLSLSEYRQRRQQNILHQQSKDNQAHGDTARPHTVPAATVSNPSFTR
The description is as above.

Test [5] addresses T6, IES6 (S. pombe) (S. pombe) (UniProt Q9UTE8).
T6 sequence: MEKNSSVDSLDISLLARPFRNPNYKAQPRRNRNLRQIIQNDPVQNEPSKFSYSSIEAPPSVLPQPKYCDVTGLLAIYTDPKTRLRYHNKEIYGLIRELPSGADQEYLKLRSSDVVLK
The description is as above.

Test [6] has as its target T7, SWC2 (S. pombe) (S. pombe) (UniProt Q9P790).
T7 sequence: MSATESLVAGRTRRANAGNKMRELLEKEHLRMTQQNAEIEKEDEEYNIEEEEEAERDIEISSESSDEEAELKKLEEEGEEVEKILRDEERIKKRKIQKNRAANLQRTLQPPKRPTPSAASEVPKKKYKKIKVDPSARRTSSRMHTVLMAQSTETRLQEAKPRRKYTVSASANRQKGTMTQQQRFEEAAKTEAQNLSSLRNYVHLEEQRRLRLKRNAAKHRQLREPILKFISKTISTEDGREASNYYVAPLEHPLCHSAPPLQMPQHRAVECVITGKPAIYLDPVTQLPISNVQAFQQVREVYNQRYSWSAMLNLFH
The test is described as above.

The target of a further test is T8, Sp_Png2 (S. pombe) (UniProt O74736).
T8 sequence: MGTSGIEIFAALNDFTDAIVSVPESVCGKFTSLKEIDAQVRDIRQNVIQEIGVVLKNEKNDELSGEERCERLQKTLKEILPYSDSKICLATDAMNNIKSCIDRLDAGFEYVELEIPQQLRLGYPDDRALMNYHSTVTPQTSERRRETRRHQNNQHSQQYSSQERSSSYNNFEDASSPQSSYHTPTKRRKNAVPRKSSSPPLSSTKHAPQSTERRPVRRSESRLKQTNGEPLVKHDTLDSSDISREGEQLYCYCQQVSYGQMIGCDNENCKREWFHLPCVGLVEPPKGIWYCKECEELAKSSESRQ
Described as above.

Another test has as its target T9, Sc_Tos4p (S. cerevisiae) (UniProt Q06266).
T9 sequence: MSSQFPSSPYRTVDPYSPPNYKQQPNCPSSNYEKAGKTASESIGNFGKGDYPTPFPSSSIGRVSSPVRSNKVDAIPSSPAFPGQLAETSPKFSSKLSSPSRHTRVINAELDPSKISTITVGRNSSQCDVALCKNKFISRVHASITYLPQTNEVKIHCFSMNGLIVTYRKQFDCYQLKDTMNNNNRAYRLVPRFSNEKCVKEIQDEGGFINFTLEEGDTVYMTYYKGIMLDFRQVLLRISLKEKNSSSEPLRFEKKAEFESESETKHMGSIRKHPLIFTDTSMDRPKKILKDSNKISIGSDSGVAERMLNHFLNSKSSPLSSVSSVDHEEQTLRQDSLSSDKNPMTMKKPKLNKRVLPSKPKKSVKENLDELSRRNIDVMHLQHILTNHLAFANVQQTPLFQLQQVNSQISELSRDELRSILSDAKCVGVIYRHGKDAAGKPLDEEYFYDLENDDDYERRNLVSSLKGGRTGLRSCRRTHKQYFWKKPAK
Description: affinity purification with mass spectrometry; TAP of baits TAP-tagged at their genes from S. cerevisiae extracts; eluates on 6-18% gels, Coomassie, bands and slices identified by MALDI peptide mapping and LC-MS/MS; common background removed, A-index cut-off 1.75.

As to “Tra1 (S. pombe) (from UniProt Q9HFE8 1-3661)”, the binding result in test [1] was “binds”.
As for Sp_Cph1 (from UniProt Q09819), the binding result (in the test with Sp_Alp13p (S. pombe); in test [2]) was “binds” in each case.
As for “Tra2 (S. pombe) (from UniProt Q10064 1-3655)”, the binding result (in test [3]; in test [4]; with Sp_Alp13p (S. pombe)) was “binds” each time.
Consider Sp_Hst1 (S. pombe), for which, in the test with Sp_Set3p (S. pombe), the binding result is recorded as “no binding”.
Consider NHT1 (S. pombe) (from UniProt O42648), for which the binding result in test [5] and in [1] was “binds” in each case.
For the substance PNG1 (S. pombe) (from UniProt O42871), the binding result (in test [3]; in test [4]; in the test with Sp_Alp13p (S. pombe)) was “binds” each time.
For the substance Sp_Pht1p (from UniProt P48003 1-139), the binding result in test [3], in [4], in test [6], in test [5] and in [1] was “binds” throughout.
In the case of Sp_Pst1p (from UniProt Q09750 1-1522), the binding entry (in the test with Sp_Png2 (S. pombe); in test [2]) was “binds” each time.
Turning to Sp_Rxt2p (from UniProt O94355), the binding result (with Sp_Png2 (S. pombe); in [2]) was “binds” throughout.
In the case of ARP8 (S. pombe) (from UniProt Q9US07), the binding entry in test [5] and in test [1] was “binds” each time.
As to Sp_Snt1p (from UniProt Q10369), the binding entry in the test with Sp_Set3p (S. pombe) was “binds”.
For the substance Sc_Hst1p (from UniProt P53685 1-503), the binding result in the test with Sc_Tos4p (S. cerevisiae) was “no binding”.
Take “RVB1 (S. pombe) (from UniProt Q9C0X6 1-456)”: the binding entry in [3], in test [4] and in test [6] was “binds” in each case.
Take Sp_Msc1p (from UniProt Q9UT79 1-1588): the binding entry in test [3], in [4], in test [6] and in test [1] was “binds” in each case.
Sp_Cph2 (from UniProt Q09698): the binding result (in the test with Sp_Alp13p (S. pombe); in test [2]) was “binds” each time.
Regarding Sc_Cph1p (from UniProt P14832 1-162), the binding result with Sc_Tos4p (S. cerevisiae) was “binds”.
For the substance “ACT1 (S. pombe) (from UniProt P10989 1-375)”, the binding entry (in test [3]; in test [6]; with Sp_Alp13p (S. pombe); in [5]; in [1]) was “binds” throughout.

Source of the values: paper PMC2614481.
